Experimental data from article PMC6445148.
No constants are given. Whether binding was seen depends on the method and setting. In cells and extracts the contact can be indirect. Some entries that bind do so weakly or less than the wild type.

Protein sequences, listed by entry. Tags and fused reporters are not part of them.
UniProt Q8R4B8: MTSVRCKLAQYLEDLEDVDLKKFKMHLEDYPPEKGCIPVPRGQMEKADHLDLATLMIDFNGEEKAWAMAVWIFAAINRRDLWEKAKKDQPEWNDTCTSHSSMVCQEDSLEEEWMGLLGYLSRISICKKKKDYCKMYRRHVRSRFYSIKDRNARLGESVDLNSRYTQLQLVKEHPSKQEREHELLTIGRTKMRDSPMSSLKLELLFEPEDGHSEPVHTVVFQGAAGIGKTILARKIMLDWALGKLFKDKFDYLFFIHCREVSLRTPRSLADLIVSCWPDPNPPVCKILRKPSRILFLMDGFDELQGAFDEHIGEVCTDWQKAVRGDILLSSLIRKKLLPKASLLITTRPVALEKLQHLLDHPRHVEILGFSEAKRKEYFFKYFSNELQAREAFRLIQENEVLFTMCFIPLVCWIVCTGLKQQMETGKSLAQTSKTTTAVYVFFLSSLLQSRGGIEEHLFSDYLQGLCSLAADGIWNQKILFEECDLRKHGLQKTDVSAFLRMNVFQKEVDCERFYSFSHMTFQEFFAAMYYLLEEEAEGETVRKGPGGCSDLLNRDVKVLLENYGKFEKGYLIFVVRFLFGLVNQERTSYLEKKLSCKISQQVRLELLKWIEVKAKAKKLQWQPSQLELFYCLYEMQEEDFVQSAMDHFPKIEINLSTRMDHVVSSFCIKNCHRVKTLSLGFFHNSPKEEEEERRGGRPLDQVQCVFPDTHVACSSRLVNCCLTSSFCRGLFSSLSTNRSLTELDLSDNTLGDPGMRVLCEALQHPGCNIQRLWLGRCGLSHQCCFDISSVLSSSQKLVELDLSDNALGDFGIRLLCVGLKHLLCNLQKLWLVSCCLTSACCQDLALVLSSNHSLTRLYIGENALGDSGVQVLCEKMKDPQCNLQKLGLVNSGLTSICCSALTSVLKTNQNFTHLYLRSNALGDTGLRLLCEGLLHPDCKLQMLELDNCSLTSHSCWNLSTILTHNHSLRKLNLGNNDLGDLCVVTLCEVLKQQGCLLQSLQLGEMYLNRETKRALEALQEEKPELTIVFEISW
UniProt Q3UP24: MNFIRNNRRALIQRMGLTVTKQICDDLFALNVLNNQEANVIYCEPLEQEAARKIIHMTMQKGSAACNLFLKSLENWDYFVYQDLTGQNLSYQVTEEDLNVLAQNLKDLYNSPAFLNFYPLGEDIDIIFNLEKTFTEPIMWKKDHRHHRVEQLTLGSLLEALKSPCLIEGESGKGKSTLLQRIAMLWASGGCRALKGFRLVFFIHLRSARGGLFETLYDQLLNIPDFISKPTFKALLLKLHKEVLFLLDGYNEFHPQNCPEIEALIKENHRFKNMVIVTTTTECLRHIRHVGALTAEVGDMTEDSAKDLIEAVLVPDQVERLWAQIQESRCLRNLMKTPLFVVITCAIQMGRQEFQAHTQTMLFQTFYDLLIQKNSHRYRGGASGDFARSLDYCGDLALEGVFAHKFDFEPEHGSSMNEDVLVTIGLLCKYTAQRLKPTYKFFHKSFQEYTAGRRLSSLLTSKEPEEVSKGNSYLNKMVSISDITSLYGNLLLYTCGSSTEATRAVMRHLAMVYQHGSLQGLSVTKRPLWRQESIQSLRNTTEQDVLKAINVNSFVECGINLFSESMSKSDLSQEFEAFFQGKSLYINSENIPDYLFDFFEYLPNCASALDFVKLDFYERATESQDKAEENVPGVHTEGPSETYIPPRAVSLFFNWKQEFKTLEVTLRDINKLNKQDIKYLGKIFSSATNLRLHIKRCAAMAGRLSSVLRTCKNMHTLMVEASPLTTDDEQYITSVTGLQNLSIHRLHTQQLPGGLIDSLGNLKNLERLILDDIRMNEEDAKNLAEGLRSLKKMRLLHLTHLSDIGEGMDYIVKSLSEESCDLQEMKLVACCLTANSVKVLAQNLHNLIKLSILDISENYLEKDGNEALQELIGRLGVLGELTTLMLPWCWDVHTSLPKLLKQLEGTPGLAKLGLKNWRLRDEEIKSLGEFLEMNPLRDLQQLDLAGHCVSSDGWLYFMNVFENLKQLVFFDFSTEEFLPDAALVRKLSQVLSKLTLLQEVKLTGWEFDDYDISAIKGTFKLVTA

T1: apoptosis-associated speck-like protein containing CARD (ASC) (mouse (endogenous in iBMDMs)) (UniProt Q9EPB4)
T1 sequence: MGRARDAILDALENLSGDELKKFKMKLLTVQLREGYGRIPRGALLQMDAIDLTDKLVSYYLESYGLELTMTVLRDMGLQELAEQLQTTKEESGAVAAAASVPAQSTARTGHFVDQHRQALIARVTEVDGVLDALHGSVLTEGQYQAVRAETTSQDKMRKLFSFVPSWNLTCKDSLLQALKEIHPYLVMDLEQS

T2: Nono (mouse (endogenous in iBMDMs)) (UniProt Q99K48)
T2 sequence: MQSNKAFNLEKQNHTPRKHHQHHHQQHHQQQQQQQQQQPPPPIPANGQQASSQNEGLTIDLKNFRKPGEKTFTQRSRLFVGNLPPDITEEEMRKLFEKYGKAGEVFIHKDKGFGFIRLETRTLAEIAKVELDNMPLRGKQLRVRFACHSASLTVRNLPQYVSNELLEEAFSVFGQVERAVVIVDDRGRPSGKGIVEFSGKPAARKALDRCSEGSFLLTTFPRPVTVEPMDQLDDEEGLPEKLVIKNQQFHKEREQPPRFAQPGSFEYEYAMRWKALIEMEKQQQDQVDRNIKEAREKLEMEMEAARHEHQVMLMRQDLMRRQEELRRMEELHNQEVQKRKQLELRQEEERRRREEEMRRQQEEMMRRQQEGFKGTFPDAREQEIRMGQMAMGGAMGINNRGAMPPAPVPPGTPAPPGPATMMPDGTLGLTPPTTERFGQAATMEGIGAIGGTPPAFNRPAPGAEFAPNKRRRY


Tests used:
[1] = biological target: T1, apoptosis-associated speck-like protein containing CARD (ASC) (mouse (endogenous in iBMDMs)); experiment: co-IP; lysates of control or Neat1_1-expressing iBMDMs primed with LPS and stimulated with flagellin or poly(dA:dT); immunoprecipitated with ASC antibody or normal rabbit IgG; western blotting
[2] = biological target: NLRP3 (mouse (endogenous in iBMDMs)) (UniProt Q8R4B8); experiment: co-IP; endogenous proteins in lysates of control or Neat1_1-overexpressing iBMDMs; precipitating antibody not told in the text shown (Supplementary Fig. 1m); protein A/G magnetic beads, western blotting
[3] = biological target: T2, Nono (mouse (endogenous in iBMDMs)); experiment: co-IP; endogenous paraspeckle proteins in lysates of untreated, LPS-primed, flagellin-, poly(dA:dT)- or 2DG-activated iBMDMs; western blotting

Molecule | binding [1] | binding [2] | binding [3]
NLRC4 (from UniProt Q3UP24 1-1024) | binds |  | 
pro-caspase-1 (protein, UniProt P29452 1-402) MADKILRAKRKQFINSVSIGTINGLLDELLEKRVLNQEEMDKIKLANITAMDKARDLCDHVSKKGPQASQIFITYICNEDCYLAGILELQSAPSAETFVATEDSKGGHPSSSETKEEQNKEDGTFPGLTGTLKFCPLEKAQKLWKENPSEIYPIMNTTTRTRLALIICNTEFQHLSPRVGAQVDLREMKLLLEDLGYTVKVKENLTALEMVKEVKEFAACPEHKTSDSTFLVFMSHGIQEGICGTTYSNEVSDILKVDTIFQMMNTLKCPSLKDKPKVIIIQACRGEKQGVVLLKDSVRDSEEDFLTDAIFEDDGIKKAHIEKDFIAFCSSTPDNVSWRHPVRGSLFIESLIKHMKEYAWSCDLEDIFRKVRFSFEQPEFRLQMPTADRVTLTKRFYLFPGH | binds | binds | 
AIM2 (protein, UniProt Q91VJ1 1-354) MESEYREMLLLTGLDHITEEELKRFKYFALTEFQIARSTLDVADRTELADHLIQSAGAASAVTKAINIFQKLNYMHIANALEEKKKEAERKLMTNTKKRGTQKVENRSQAENCSAASATRSDNDFKEQAATEVCPQAKPQKKQMVAEQEAIREDLQKDPLVVTVLKAINPFECETQEGRQEIFHATVATETDFFFVKVLNAQFKDKFIPKRTIKISNYLWHSNFMEVTSSSVVVDVESNHEVPNNVVKRARETPRISKLKIQPCGTIVNGLFKVQKITEEKDRVLYGIHDKTGTMEVLVLGNPSKTKCEEGDKIRLTFFEVSKNGVKIQLKSGPCSFFKVIKAAKPKTDMKSVE | binds |  | 
Pspc1 (protein, UniProt Q8R326 1-523) MMLRGNLKQVRIEKNPARLRALESAAGESEPVAAAAMALTLAGEQAPPPAPSEEHPDEELGFTIDIKSFLKPGEKTYTQRCRLFVGNLPTDITEEDFKRLFERYGEPSEVFINRDRGFGFIRLESRTLAEIAKAELDGTILKSRPLRIRFATHGAALTVKNLSPVVSNELLEQAFSQFGPVEKAVVVVDDRGRATGKGFVEFAAKPPARKALERCGDGAFLLTTTPRPVIVEPMEQFDDEDGLPEKLMQKTQQYHKEREQPPRFAQPGTFEFEYASRWKALDEMEKQQREQVDRNIREAKEKLEAEMEAARHEHQLMLMRQDLMRRQEELRRLEELRNQELQKRKQIQLRHEEEHRRREEEMIRHREQEELRRQQEGGFKPNYMENREQEMRMGDMGPRGAINMGDAFSPAPAGTQGPPPMMGMNMNNRGTIPGPPMGPGPAMGPEGAANMGTPMIPDNGAVHNDRFPQGPPSQMGSPMGNRTGSETPQAPMSGVGPVSGGPGGFGRGSQGGNFEGPNKRRRY |  |  | binds
Sfpq (protein, UniProt Q8VIJ6 1-699) MSRDRFRSRGGGGGGFHRRGGGGGRGGLHDFRSPPPGMGLNQNRGPMGPGPGGPKPPLPPPPPHQQQQQPPPQQPPPQQPPPHQQPPPHQPPHQQPPPPPQESKPVVPQGPGSAPGVSSAPPPAVSAPPANPPTTGAPPGPGPTPTPPPAVPSTAPGPPPPSTPSSGVSTTPPQTGGPPPPPAGGAGPGPKPGPGPGGPKGGKMPGGPKPGGGPGMGAPGGHPKPPHRGGGEPRGGRQHHAPYHQQHHQGPPPGGPGPRTEEKISDSEGFKANLSLLRRPGEKTYTQRCRLFVGNLPADITEDEFKRLFAKYGEPGEVFINKGKGFGFIKLESRALAEIAKAELDDTPMRGRQLRVRFATHAAALSVRNLSPYVSNELLEEAFSQFGPIERAVVIVDDRGRSTGKGIVEFASKPAARKAFERCSEGVFLLTTTPRPVIVEPLEQLDDEDGLPEKLAQKNPMYQKERETPPRFAQHGTFEYEYSQRWKSLDEMEKQQREQVEKNMKDAKDKLESEMEDAYHEHQANLLRQDLMRRQEELRRMEELHSQEMQKRKEMQLRQEEERRRREEEMMIRQREMEEQMRRQREESYSRMGYMDPRERDMRMGGGGTMNMGDPYGSGGQKFPPLGGGGGIGYEANPGVPPATMSGSMMGSDMRTERFGQGGAGPVGGQGPRGMGPGTPAGYGRGREEYEGPNKKPRF |  |  | binds
